# Test results taken from the supplement of paper PMC10849652.
# Protein sequences, listed by entry. Tags and fused reporters are not part of them. Lines headed by an entry give the natural chain unless they say otherwise; changes in a name come on top.
# UniProt A8MWY0: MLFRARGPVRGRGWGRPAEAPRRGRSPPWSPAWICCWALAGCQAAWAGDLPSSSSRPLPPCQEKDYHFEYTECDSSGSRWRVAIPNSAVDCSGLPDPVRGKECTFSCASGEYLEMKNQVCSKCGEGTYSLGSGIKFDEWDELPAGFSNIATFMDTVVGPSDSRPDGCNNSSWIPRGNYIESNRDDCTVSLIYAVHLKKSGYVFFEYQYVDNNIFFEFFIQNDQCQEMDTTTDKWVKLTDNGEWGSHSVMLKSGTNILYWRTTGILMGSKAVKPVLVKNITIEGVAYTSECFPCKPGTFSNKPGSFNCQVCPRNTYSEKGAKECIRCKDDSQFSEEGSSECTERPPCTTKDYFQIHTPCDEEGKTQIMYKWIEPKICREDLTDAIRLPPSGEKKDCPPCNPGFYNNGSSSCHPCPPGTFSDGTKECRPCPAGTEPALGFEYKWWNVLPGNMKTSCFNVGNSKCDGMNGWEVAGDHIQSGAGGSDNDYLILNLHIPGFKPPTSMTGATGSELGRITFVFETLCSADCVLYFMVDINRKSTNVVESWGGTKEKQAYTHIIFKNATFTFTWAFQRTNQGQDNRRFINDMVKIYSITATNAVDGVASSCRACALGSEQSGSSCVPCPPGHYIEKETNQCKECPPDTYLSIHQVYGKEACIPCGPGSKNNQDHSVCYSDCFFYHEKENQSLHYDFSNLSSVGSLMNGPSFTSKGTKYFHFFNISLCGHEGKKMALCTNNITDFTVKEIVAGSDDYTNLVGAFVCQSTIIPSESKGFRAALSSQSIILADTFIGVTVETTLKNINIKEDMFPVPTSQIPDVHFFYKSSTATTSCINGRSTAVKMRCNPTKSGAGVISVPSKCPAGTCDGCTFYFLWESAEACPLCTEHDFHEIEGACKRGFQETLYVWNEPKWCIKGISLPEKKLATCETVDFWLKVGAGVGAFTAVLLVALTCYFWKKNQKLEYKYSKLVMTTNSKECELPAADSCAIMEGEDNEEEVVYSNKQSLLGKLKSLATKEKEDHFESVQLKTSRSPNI
# UniProt O94889: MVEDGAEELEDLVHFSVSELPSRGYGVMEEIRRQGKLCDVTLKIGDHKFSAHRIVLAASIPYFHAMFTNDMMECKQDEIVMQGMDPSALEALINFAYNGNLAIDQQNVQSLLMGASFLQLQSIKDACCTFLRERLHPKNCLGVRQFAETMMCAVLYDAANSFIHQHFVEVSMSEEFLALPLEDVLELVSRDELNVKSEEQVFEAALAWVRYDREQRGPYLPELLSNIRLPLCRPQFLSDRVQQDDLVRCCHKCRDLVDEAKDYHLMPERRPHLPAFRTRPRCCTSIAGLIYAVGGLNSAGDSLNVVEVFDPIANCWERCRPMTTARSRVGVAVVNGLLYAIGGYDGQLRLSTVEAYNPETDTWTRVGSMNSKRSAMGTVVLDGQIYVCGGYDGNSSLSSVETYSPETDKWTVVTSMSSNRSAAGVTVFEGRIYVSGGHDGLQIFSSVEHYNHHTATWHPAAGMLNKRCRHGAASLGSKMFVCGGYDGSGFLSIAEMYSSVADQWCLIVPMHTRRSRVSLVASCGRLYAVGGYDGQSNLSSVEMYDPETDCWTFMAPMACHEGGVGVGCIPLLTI
# UniProt Q9NS87: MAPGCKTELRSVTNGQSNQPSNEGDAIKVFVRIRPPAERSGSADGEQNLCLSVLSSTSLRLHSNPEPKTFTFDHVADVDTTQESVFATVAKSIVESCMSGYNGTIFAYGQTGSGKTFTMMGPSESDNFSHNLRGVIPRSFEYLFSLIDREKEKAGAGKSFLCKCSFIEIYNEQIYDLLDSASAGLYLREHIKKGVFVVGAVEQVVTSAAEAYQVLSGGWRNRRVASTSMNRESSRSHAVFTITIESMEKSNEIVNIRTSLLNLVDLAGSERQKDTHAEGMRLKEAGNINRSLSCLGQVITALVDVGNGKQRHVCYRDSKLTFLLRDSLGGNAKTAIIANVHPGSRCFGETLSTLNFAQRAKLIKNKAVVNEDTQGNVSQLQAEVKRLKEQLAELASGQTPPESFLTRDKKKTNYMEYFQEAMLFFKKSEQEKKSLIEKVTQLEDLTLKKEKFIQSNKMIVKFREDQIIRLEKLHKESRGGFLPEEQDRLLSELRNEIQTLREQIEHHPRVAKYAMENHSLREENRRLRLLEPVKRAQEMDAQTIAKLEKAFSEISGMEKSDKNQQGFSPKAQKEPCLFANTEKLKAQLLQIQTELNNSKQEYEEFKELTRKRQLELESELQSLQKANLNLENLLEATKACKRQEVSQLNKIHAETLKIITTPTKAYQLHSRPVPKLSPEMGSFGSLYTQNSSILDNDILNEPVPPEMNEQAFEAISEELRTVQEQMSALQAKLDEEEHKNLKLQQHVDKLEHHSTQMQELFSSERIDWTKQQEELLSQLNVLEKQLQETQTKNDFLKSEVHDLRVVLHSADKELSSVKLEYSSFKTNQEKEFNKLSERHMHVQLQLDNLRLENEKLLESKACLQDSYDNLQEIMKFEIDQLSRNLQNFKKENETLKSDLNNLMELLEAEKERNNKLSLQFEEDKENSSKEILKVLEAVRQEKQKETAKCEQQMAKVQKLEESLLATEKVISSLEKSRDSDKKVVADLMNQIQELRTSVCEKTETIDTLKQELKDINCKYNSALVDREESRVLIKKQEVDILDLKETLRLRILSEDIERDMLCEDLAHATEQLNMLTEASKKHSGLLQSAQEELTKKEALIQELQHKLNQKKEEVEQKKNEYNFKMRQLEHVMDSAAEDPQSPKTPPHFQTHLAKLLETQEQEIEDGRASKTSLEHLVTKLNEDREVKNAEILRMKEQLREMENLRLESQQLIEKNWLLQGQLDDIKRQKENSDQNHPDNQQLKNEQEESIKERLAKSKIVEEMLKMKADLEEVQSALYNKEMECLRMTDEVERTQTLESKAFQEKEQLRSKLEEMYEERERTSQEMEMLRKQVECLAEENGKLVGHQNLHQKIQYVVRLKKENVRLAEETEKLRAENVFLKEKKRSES
# UniProt Q13601: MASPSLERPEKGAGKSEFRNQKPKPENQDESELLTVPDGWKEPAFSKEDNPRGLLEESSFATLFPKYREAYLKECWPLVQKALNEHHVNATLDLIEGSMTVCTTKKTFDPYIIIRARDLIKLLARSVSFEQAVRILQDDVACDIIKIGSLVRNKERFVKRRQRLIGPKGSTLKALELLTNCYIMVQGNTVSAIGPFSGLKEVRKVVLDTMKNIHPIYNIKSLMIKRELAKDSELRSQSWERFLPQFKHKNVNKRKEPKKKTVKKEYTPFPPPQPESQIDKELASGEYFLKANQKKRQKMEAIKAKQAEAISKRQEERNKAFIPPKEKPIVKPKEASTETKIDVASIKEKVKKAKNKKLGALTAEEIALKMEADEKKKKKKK
# UniProt P83111: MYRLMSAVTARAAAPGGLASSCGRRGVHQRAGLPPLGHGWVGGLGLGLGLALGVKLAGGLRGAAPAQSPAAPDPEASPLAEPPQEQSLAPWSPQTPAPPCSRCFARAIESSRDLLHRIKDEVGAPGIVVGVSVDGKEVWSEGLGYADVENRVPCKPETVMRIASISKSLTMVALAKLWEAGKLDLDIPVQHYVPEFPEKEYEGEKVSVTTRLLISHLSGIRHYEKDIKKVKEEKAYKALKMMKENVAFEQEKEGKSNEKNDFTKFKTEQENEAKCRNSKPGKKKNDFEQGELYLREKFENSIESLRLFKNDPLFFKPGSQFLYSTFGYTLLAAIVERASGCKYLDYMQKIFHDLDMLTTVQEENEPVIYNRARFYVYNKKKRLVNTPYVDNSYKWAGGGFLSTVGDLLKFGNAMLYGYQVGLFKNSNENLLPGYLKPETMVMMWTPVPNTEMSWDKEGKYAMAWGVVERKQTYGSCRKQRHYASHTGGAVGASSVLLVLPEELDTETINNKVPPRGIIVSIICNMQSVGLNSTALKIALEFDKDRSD
# UniProt Q9BQD3: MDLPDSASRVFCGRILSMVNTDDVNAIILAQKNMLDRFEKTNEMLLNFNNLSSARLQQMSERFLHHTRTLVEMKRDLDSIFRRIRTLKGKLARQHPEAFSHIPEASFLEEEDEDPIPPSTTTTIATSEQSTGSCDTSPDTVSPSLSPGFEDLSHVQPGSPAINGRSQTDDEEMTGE
# UniProt Q16773: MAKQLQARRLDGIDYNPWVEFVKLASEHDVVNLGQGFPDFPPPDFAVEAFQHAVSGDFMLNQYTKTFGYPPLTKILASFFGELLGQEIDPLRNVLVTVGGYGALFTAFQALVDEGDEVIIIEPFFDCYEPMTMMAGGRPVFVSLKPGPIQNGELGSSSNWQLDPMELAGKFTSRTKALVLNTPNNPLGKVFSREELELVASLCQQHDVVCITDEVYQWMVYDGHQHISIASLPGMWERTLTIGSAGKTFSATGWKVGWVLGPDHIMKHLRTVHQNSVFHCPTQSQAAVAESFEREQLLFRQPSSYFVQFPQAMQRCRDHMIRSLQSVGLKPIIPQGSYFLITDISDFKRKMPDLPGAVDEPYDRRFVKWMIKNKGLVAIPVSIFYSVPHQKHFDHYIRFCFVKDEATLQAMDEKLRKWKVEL
# UniProt O60870: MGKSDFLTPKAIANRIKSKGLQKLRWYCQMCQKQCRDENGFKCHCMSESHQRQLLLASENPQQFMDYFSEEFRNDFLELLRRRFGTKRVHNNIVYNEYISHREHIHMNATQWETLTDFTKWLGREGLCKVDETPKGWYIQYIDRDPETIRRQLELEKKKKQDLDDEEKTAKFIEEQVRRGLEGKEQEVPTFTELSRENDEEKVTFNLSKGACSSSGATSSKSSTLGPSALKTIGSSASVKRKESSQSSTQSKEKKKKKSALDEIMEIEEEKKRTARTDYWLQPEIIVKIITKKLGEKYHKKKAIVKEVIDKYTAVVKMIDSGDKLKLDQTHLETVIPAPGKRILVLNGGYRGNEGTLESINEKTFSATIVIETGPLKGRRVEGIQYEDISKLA
# UniProt Q9Y664: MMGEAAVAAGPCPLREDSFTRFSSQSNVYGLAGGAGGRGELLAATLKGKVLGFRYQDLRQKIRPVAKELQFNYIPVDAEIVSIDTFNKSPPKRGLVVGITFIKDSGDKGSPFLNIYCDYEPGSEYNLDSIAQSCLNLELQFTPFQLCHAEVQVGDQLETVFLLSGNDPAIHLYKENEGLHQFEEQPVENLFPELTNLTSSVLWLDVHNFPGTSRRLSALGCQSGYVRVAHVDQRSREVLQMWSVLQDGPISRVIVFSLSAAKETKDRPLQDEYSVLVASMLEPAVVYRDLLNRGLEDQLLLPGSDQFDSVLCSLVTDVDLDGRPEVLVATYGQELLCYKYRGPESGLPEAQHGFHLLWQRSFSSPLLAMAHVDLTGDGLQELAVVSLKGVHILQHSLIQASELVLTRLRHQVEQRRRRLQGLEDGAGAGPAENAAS
# UniProt Q6YP21: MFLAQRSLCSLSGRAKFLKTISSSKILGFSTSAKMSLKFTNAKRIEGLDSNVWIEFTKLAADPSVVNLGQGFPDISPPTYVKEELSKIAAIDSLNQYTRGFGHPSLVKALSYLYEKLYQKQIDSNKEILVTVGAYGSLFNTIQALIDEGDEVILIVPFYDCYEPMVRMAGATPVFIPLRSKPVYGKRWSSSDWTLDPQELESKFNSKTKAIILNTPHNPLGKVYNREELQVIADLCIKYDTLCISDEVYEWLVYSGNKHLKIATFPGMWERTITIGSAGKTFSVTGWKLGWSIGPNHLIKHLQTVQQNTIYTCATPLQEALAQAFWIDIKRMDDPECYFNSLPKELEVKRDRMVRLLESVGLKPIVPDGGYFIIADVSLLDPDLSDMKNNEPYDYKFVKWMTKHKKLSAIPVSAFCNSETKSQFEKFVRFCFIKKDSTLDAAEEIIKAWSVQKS
# UniProt O00139: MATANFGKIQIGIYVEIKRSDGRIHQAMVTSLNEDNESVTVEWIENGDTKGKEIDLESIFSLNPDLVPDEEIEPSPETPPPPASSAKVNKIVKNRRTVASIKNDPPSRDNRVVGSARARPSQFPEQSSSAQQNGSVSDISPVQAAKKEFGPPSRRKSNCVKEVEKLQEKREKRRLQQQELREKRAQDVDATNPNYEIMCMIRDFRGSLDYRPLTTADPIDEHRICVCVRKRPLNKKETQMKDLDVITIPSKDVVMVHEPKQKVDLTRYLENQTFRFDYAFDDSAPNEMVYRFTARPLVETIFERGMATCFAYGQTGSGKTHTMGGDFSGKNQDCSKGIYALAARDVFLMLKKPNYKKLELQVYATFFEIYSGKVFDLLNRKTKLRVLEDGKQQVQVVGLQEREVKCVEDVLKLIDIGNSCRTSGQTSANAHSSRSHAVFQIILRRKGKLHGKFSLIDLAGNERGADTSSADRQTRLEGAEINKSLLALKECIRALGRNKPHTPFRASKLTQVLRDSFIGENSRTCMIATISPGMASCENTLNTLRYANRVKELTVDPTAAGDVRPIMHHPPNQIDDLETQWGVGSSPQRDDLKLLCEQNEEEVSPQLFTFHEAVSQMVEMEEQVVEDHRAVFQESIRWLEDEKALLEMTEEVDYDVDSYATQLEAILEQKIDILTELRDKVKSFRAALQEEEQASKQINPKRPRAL
# Some of the results follow.
# Compound: C1COCCN1CCN2C3=CC=CC=C3N=C2NC(=O)C4=CC(=CC=C4)[N+](=O)[O-] [IRAK-1-4 Inhibitor I]
# Assay: log2 fold change, soluble protein after heating vs DMSO (PISA); higher = thermal stabilisation; K562 lysate, 10 uM; active = over 0.2 and 3.5 SD of the protein, either way, in both replicates (recomputed)
# Procedure, shortened: (§1)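 Soluble protein was defined as the supernatant remaining after 21,000xg for 90 min, following pooling of heated aliquots and adjustment to 0.5% NP-40 at 4°C. Before that, crude K562 extract at 1 mg/mL protein in PBS pH 7.4 with 1 mM MgCl2 was treated with 10 μM compound for 30 min and heated for 3 min across 48°C-58°C. Quantification used TMTpro 16plex LC-MS/MS with channel sums equalised, and values are log-two fold changes in thermal stability relative to solvent controls from duplicates.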
row,Target,log2 fold change
1,KIAA1324L (UniProt A8MWY0),inactive: 0.013
2,KLHL18 (UniProt O94889),inactive: 0.003
3,KIF15 (UniProt Q9NS87),inactive: -0.012
4,KRR1 (UniProt Q13601),inactive: -0.069
5,LACTB (UniProt P83111),inactive: -0.11
6,KXD1 (UniProt Q9BQD3),inactive: -0.025
7,KMT2D isoform 3 (UniProt O14686),inactive: -0.006
8,KYAT1 (UniProt Q16773),inactive: 0.016
9,KIN (UniProt O60870),inactive: 0.009
10,LAMTOR4 (UniProt Q0VGL1),inactive: 0.011

# Compound: C=CC(=O)N1CCC[C@@H](n2nc(-c3ccc(Oc4ccccc4)cc3)c3c(N)ncnc32)C1 [ibrutinib]
# Assay: as above
# Procedure, shortened: as §1
row,Target,log2 fold change
1,KLHDC4 (UniProt Q8TBB5),inactive: 0.053
2,KIF5B (UniProt P33176),inactive: -0.013
3,KIAA2013 (UniProt Q8IYS2),inactive: 0.001
4,KIF1B isoform 2 (UniProt O60333),inactive: 0.007
5,KTI12 (UniProt Q96EK9),inactive: -0.013
6,KDSR (UniProt Q06136),inactive: 0.005
7,KIF2C (UniProt Q99661),inactive: 0.004
8,LANCL1 (UniProt O43813),inactive: 0.044
9,KPTN (UniProt Q9Y664),inactive: -0.001
10,LARP7 isoform 3 (UniProt Q4G0J3),inactive: -0.001
11,KDM8 isoform 3 (UniProt Q8N371),inactive: 0.056
12,KEAP1 (UniProt Q14145),inactive: 0.014
13,KLC2 (UniProt Q9H0B6),inactive: 0.021
14,KPNB1 (UniProt Q14974),inactive: -0.023
15,KSR1 (UniProt Q8IVT5),inactive: 0.021
16,KPNA2 (UniProt P52292),inactive: -0.044

row,Target,log2 fold change
1,KLHDC3 (UniProt Q9BQ90),inactive: 0.113
2,KYAT3 (UniProt Q6YP21),inactive: 0.005
3,LARP4 isoform 4 (UniProt Q71RC2),inactive: -0.003
4,KIF5A (UniProt Q12840),inactive: 0.002
5,KIAA1191 (UniProt Q96A73),inactive: 0.016
6,KIF2A isoform 4 (UniProt O00139),inactive: 0.031
7,KIAA1324L (UniProt A8MWY0),inactive: 0.059
8,KLHL18 (UniProt O94889),inactive: 0.018
9,KIF15 (UniProt Q9NS87),inactive: -0.017
10,KRR1 (UniProt Q13601),inactive: 0.037
11,LACTB (UniProt P83111),inactive: 0.007
12,KXD1 (UniProt Q9BQD3),inactive: 0.087
13,KMT2D isoform 3 (UniProt O14686),inactive: 0.007
14,KYAT1 (UniProt Q16773),inactive: -0.003
15,KIN (UniProt O60870),inactive: -0.051
16,LAMTOR4 (UniProt Q0VGL1),inactive: 0.057

# Compound: CC(=O)c1cnc2ccc(-c3cc(Cl)c(O)c(Cl)c3)nc2c1N[C@H]1CC[C@H](CN(C)C)CC1
# Assay: as above
# Procedure, shortened: as §1
row,Target,log2 fold change
1,KLHDC4 (UniProt Q8TBB5),inactive: -0.003
2,KIF5B (UniProt P33176),inactive: 0.004
3,KIAA2013 (UniProt Q8IYS2),inactive: 0.013
4,KIF1B isoform 2 (UniProt O60333),inactive: -0.028
5,KTI12 (UniProt Q96EK9),inactive: 0.014
6,KDSR (UniProt Q06136),inactive: 0.02
7,KIF2C (UniProt Q99661),inactive: 0.014
8,LANCL1 (UniProt O43813),inactive: 0.028
9,KPTN (UniProt Q9Y664),inactive: 0.011
10,LARP7 isoform 3 (UniProt Q4G0J3),inactive: -0.019
11,KDM8 isoform 3 (UniProt Q8N371),inactive: -0.006
12,KEAP1 (UniProt Q14145),inactive: 0.001
13,KLC2 (UniProt Q9H0B6),inactive: 0.01
14,KPNB1 (UniProt Q14974),inactive: 0
15,KSR1 (UniProt Q8IVT5),inactive: -0.103
16,KPNA2 (UniProt P52292),inactive: -0.011

row,Target,log2 fold change
1,KLHDC3 (UniProt Q9BQ90),inactive: 0.021
2,KYAT3 (UniProt Q6YP21),inactive: 0.018
3,LARP4 isoform 4 (UniProt Q71RC2),inactive: -0.035
4,KIF5A (UniProt Q12840),inactive: 0.006
5,KIAA1191 (UniProt Q96A73),inactive: -0.016
6,KIF2A isoform 4 (UniProt O00139),inactive: 0
7,KIAA1324L (UniProt A8MWY0),inactive: -0.007
8,KLHL18 (UniProt O94889),inactive: 0.005
9,KIF15 (UniProt Q9NS87),inactive: 0.006
10,KRR1 (UniProt Q13601),inactive: 0.009
11,LACTB (UniProt P83111),inactive: 0.014
12,KXD1 (UniProt Q9BQD3),inactive: 0.016
13,KMT2D isoform 3 (UniProt O14686),inactive: 0.001
14,KYAT1 (UniProt Q16773),inactive: 0.007
15,KIN (UniProt O60870),inactive: 0.032
16,LAMTOR4 (UniProt Q0VGL1),inactive: -0.012
